PubChem BioAssay AID504774, Drosophila RNAi Screening Center | 2011
Assay: 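Genes required for cells to withstand methyl methanesulphonate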 (primary screen). Cell system: Drosophila Kc167 cells. Reagent: long dsRNA against Drosophila genes, about 0.25 µg dsRNA per well. Time to read-out: about 6 days: 3 days knock-down, then 3 days with or without MMS. Conditions: methyl methanesulphonate 0.004% (w/v) for 3 days after knock-down. Measured: 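Viability in wells given MMS, read as ATP luminescence, normalised by quantiles plate by plate and averaged across replicates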. Reading the numbers: mean viability with MMS and viability with MMS: higher = more surviving cells after MMS.
The screen tested about 23,000 reagents; below is an unselected part of those with a known target gene and a result. 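Values are quantile-normalised luminescence on an arbitrary scale; higher means more cells surviving MMS.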 A plus sign joins genes that one reagent is predicted to hit.

gene | amplicon | mean viability with MMS | viability with MMS, replicate 1 | viability with MMS, replicate 2
Zyx (GeneID 317824) | DRSC17186 | 3.53e6 | 4.04e6 | 3.97e6
CHKov1 (GeneID 43067) | DRSC01566 | 3.39e6 | 3.81e6 | 3.83e6
CHKov1 (GeneID 43067) | DRSC01696 | 3.36e6 | 3.81e6 | 3.75e6
CHKov1 (GeneID 43067) | DRSC14258 | 3.34e6 | 3.71e6 | 3.76e6
CHKov1 (GeneID 43067) | DRSC20937 | 2.34e6 | 4.04e6 | 3.87e6
cerv (GeneID 32492) | DRSC19681 | 3.52e6 | 4.07e6 | 3.92e6
CG12054 (GeneID 43694) | DRSC14467 | 2.78e6 | 3.60e6 | 3.61e6
CG12054 (GeneID 43694) | DRSC23137 | 3.40e6 | 3.87e6 | 3.87e6
CG13002 (GeneID 32681) | DRSC19521 | 3.44e6 | 3.88e6 | 3.90e6
ng4 (GeneID 31301) | DRSC18805 | 3.63e6 | 4.07e6 | 4.17e6
cnk (GeneID 36952) | DRSC07595 | 3.41e6 | 3.80e6 | 3.88e6
CG7135 (GeneID 32793) | DRSC20026 | 3.55e6 | 4.08e6 | 3.99e6
Unc-115b + p24-2 | DRSC16492 | 3.57e6 | 4.10e6 | 4.03e6
CG11550 (GeneID 43731) | DRSC14326 | 3.75e6 | 4.26e6 | 4.19e6
PolE1 (GeneID 42758) | DRSC16112 | 3.36e6 | 3.73e6 | 3.92e6
Lamtor3 (GeneID 35055) | DRSC02815 | 3.51e6 | 3.91e6 | 4.07e6
janB (GeneID 43568) | DRSC16973 | 3.49e6 | 3.78e6 | 4.11e6
CG2063 (GeneID 35952) | DRSC06811 | 3.22e6 | 3.72e6 | 3.73e6
dtn (GeneID 31555) | DRSC17939 | 3.62e6 | 4.24e6 | 3.97e6
CG17684 (GeneID 3355066) | DRSC07724 | 3.60e6 | 4.18e6 | 3.96e6
CG17684 (GeneID 3355066) | DRSC21166 | 3.68e6 | 4.12e6 | 4.17e6
CG7384 (GeneID 34447) | DRSC03053 | 3.31e6 | 3.63e6 | 3.83e6
Spt5 (GeneID 53442) | DRSC07556 | 3.21e6 | 3.63e6 | 3.64e6
CG18568 (GeneID 36549) | DRSC06768 | 3.57e6 | 4.18e6 | 3.92e6
CG5916 (GeneID 41960) | DRSC15917 | 3.59e6 | 4.15e6 | 3.98e6
Utx (GeneID 34377) | DRSC02872 | 3.65e6 | 4.62e6 | 3.65e6
CG33322 (GeneID 2768932) | DRSC03204 | 3.54e6 | 4.03e6 | 3.99e6
CG14374 (GeneID 50026) | DRSC14834 | 3.66e6 | 4.20e6 | 4.13e6
CG7330 (GeneID 40007) | DRSC10813 | 3.52e6 | 3.92e6 | 4.06e6
CG7330 (GeneID 40007) | DRSC10814 | 3.41e6 | 3.85e6 | 3.83e6
bmm (GeneID 39611) | DRSC10502 | 3.91e6 | 4.27e6 | 4.45e6
CG8237 (GeneID 35891) | DRSC07119 | 3.40e6 | 3.83e6 | 3.83e6
CG13992 (GeneID 33831) | DRSC02324 | 3.57e6 | 4.07e6 | 4.02e6
dpr12 (GeneID 50320) | DRSC04814 | 3.52e6 | 4.02e6 | 3.97e6
dpr12 (GeneID 50320) | DRSC04863 | 3.53e6 | 4.07e6 | 3.93e6
dpr12 (GeneID 50320) | DRSC04892 | 3.54e6 | 4.02e6 | 4.01e6
Phk-3 (GeneID 37997) | DRSC04547 | 3.64e6 | 4.19e6 | 4.07e6
c11.1 (GeneID 53436) | DRSC18749 | 3.47e6 | 3.92e6 | 3.94e6
CG30043 (GeneID 246412) | DRSC06285 | 3.51e6 | 4.17e6 | 3.79e6
CG13578 (GeneID 37891) | DRSC04214 | 3.44e6 | 3.80e6 | 3.98e6
lky (GeneID 33006) | DRSC20682 | 3.50e6 | 4.05e6 | 3.90e6
Not11 (GeneID 37839) | DRSC04204 | 3.62e6 | 3.99e6 | 4.21e6
CG31522 (GeneID 40567) | DRSC12005 | 3.58e6 | 4.05e6 | 4.07e6
CG1142 (GeneID 40894) | DRSC12531 | 3.60e6 | 4.06e6 | 4.11e6
Vlet (GeneID 32116) | DRSC19845 | 3.51e6 | 4.01e6 | 3.99e6
CG33116 (GeneID 326259) | DRSC02045 | 3.56e6 | 4.05e6 | 4.05e6
Send1 (GeneID 33407) | DRSC00482 | 3.48e6 | 4.02e6 | 3.86e6
CG31697 (GeneID 35243) | DRSC22273 | 3.51e6 | 4.04e6 | 3.94e6
Bcs1 (GeneID 34360) | DRSC02789 | 3.53e6 | 4.06e6 | 3.95e6
car (GeneID 32947) | DRSC20316 | 3.55e6 | 4.04e6 | 4.02e6
CG34286 (GeneID 5740178) | DRSC13372 | 3.58e6 | 4.15e6 | 3.97e6
CG34286 (GeneID 5740178) | DRSC21790 | 3.51e6 | 3.92e6 | 4.06e6
CG7448 (retired record) (GeneID 40440) | DRSC11828 | 3.61e6 | 4.05e6 | 4.13e6
CG7448 (retired record) (GeneID 40440) | DRSC22485 | 3.37e6 | 3.95e6 | 3.83e6
CG12112 (GeneID 31794) | DRSC17809 | 3.86e6 | 4.42e6 | 4.51e6
Sur-8 (GeneID 42093) | DRSC15794 | 3.57e6 | 4.15e6 | 3.97e6
Tdh (GeneID 40268) | DRSC11788 | 3.59e6 | 4.11e6 | 4.01e6
CG13558 (GeneID 37719) | DRSC04196 | 3.60e6 | 4.03e6 | 4.15e6
mus304 (GeneID 40003) | DRSC11372 | 3.56e6 | 4.07e6 | 4.01e6
Tgi (GeneID 39521) | DRSC09793 | 3.52e6 | 3.98e6 | 4.00e6
Tgi (GeneID 39521) | DRSC09794 | 3.55e6 | 3.98e6 | 4.07e6
CG15202 (GeneID 32052) | DRSC19649 | 3.59e6 | 4.07e6 | 4.05e6
CG2070 (GeneID 35706) | DRSC06814 | 3.38e6 | 3.86e6 | 3.81e6
Magi (GeneID 37403) | DRSC04247 | 3.65e6 | 4.00e6 | 4.30e6
Magi (GeneID 37403) | DRSC04451 | 3.33e6 | 3.81e6 | 3.70e6
CG10527 (GeneID 37393) | DRSC04078 | 3.71e6 | 4.11e6 | 4.21e6
Miox (GeneID 39391) | DRSC10747 | 3.46e6 | 3.87e6 | 3.96e6
GstE9 (GeneID 246581) | DRSC06679 | 3.53e6 | 3.94e6 | 4.07e6
